Values from PubChem BioAssay AID1259254 (NCATS, 2017).
Here is an unselected part of about 59,000 reagents. In the full data, about 1,550 (2.6%) got an active call. 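G2 share is only a proxy for re-replication; each gene was hit by three separate siRNAs, and active genes were retested.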 The numbers tell different reagents against one gene apart. Further read-outs or replicates are left out here. The record does not give: the amount of reagent.

Screen: 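Finding genes that stop cells copying their DNA twice in one cycle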 (primary screen)
Cells: human HCT116 colorectal cancer cells
Reagents: single siRNA against human genes
Timing: 3 days
Measured: 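Imaged Hoechst DNA stain sorts each cell into a cycle phase by DNA amount; per plate, G2 fraction set to 0% for non-targeting and 100% for GMNN siRNA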
Direction: G2 robust z-score: higher = more G2 cells, more excess DNA replication
Call rule: 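Active siRNAs have a G2 robust z of 5 or more median absolute deviations over the median, which in these data means about 38% or higher of GMNN control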

NFIL3 (nuclear factor, interleukin 3 regulated) #1 → G2 robust z-score = -0.0508; Outcome = inactive
NFIL3 (nuclear factor, interleukin 3 regulated) #2 → G2 robust z-score = 1.85; Outcome = inactive
NFIL3 (nuclear factor, interleukin 3 regulated) #3 → G2 robust z-score = 0.136; Outcome = inactive
CEACAM21 (CEA cell adhesion molecule 21) #1 → G2 robust z-score = 0.229; Outcome = inactive
CEACAM21 (CEA cell adhesion molecule 21) #2 → G2 robust z-score = 0.222; Outcome = inactive
CEACAM21 (CEA cell adhesion molecule 21) #3 → G2 robust z-score = 0.388; Outcome = inactive
TATDN3 (TatD DNase domain containing 3) #1 → G2 robust z-score = 4.18; Outcome = inactive
TATDN3 (TatD DNase domain containing 3) #2 → G2 robust z-score = 2.13; Outcome = inactive
TATDN3 (TatD DNase domain containing 3) #3 → G2 robust z-score = -0.281; Outcome = inactive
ACSS1 (acyl-CoA synthetase short chain family member 1) #1 → G2 robust z-score = 1.68; Outcome = inactive
ACSS1 (acyl-CoA synthetase short chain family member 1) #2 → G2 robust z-score = 2.31; Outcome = inactive
ACSS1 (acyl-CoA synthetase short chain family member 1) #3 → G2 robust z-score = -0.174; Outcome = inactive
ST3GAL6 (ST3 beta-galactoside alpha-2,3-sialyltransferase 6) #1 → G2 robust z-score = 0.774; Outcome = inactive
ST3GAL6 (ST3 beta-galactoside alpha-2,3-sialyltransferase 6) #2 → G2 robust z-score = -0.804; Outcome = inactive
ST3GAL6 (ST3 beta-galactoside alpha-2,3-sialyltransferase 6) #3 → G2 robust z-score = 0.116; Outcome = inactive
APBB1 (amyloid beta precursor protein binding family B member 1) #1 → G2 robust z-score = 0.0333; Outcome = inactive
APBB1 (amyloid beta precursor protein binding family B member 1) #2 → G2 robust z-score = 0.529; Outcome = inactive
APBB1 (amyloid beta precursor protein binding family B member 1) #3 → G2 robust z-score = 0.831; Outcome = inactive
C8orf34 (chromosome 8 open reading frame 34) #1 → G2 robust z-score = 1.7; Outcome = inactive
C8orf34 (chromosome 8 open reading frame 34) #2 → G2 robust z-score = -0.53; Outcome = inactive
C8orf34 (chromosome 8 open reading frame 34) #3 → G2 robust z-score = -0.882; Outcome = inactive
ALG1L2 #1 → G2 robust z-score = -0.345; Outcome = inactive
ALG1L2 #2 → G2 robust z-score = 0.0876; Outcome = inactive
ALG1L2 #3 → G2 robust z-score = -0.114; Outcome = inactive
OPN3 (opsin 3) #1 → G2 robust z-score = -1.64; Outcome = inactive
OPN3 (opsin 3) #2 → G2 robust z-score = -0.647; Outcome = inactive
OPN3 (opsin 3) #3 → G2 robust z-score = 0.162; Outcome = inactive
VPS33A (VPS33A core subunit of CORVET and HOPS complexes) #1 → G2 robust z-score = 2.06; Outcome = inactive
VPS33A (VPS33A core subunit of CORVET and HOPS complexes) #2 → G2 robust z-score = 0.659; Outcome = inactive
VPS33A (VPS33A core subunit of CORVET and HOPS complexes) #3 → G2 robust z-score = -0.631; Outcome = inactive

Reprinted from the entries so far for reference:
ALG1L2 #3 → G2 robust z-score = -0.114; Outcome = inactive
OPN3 (opsin 3) #1 → G2 robust z-score = -1.64; Outcome = inactive
